Source: patent US8937154B2, “Stabilized therapeutic small helical antiviral peptides” (priority 2006, dated 2015)
Some entries share one result that the patent states for a list of compounds. Where a SMILES comes first, the peptide text is derived from it. Bridges are numbered along the chain shown (N, C = ends). [ ]: non-standard residue; d: D form. S5 = C=CCCC[C@](C)(N)C(=O)O

Tested on: HIV-IIIB
Assay: Viral re-infection assay: infectivity of virions released by treated HIV-1 infected MT-2 cells
Type: cell-based
Experimental: The infectivity potential of the virions released by HIV-1 infected MT-2 cells treated with different concentrations of small stapled peptides. […] Control cells were untreated or treated with 1 ug/ml of AMD3100 (CXCR-4 receptor inhibitor). Following overnight incubation the medium was completely removed and replaced with fresh medium. On the fourth day post-infection the supernatants were collected. One aliquot of each sample was mixed 1:1 with a solution of 5% Triton X-100 for p24 quantification, and stored at 4° C., another aliquot was immediately frozen at −80° C. and used to compare the infectivity of the viral particles released by treated cells to the viral particles released by untreated cells. Following p24 quantification by sandwich-ELISA MT-2 cells were infected with viral samples normalized for the p24 content to calculate the TCID50. Following overnight incubation ¾ of the medium containing the inoculum was replaced with fresh medium. On the fourth day post infection supernatants were collected for p24 quantification and the TCID50 was calculated by the Spearman-Karber statistical method.
Therefore, to infect MT-2 cells we used the maximum quantities of supernatants possible.

`CC[C@H](C)[C@H](N)C(=O)N[C@@H](CO)C(=O)N[C@@H](Cc1ccccc1)C(=O)N[C@@]1(C)CCC/C=C\CCC[C@@](C)(C(=O)N[C@@H](Cc2ccc(O)cc2)C(=O)N[C@@H](Cc2ccc(O)cc2)C(=O)NCC(=O)N[C@@H](CCCNC(=N)N)C(N)=O)NC(=O)[C@H](CC(C)C)NC(=O)[C@H](CC(C)C)NC(=O)[C@H](CCC(=O)O)NC1=O` [NYAD-15] (H-ISF[S5]ELL[S5]YYGR-NH2; staple (Z) 4-8; N-terminus and C-terminus assumed) was tested, and the “infectivity respect to the control” value (10 μM) was 30-60% and the “infectivity respect to the control” value (20 μM) was 30-60%.

With `CC[C@H](C)[C@H](N)C(=O)N[C@H](C(=O)N[C@@H](Cc1ccccc1)C(=O)N[C@@]1(C)CCC/C=C\CCC[C@@](C)(C(=O)N[C@@H](Cc2ccc(O)cc2)C(=O)N[C@@H](Cc2ccc(O)cc2)C(=O)NCC(=O)N[C@@H](CCC(=O)O)C(=O)N[C@@H](CCCCN)C(N)=O)NC(=O)[C@H](CC(C)C)NC(=O)[C@H]([C@@H](C)CC)NC(=O)[C@H](CC(=O)O)NC1=O)[C@@H](C)O` [NYAD-23] (H-ITF[S5]DIL[S5]YYGEK-NH2; staple (Z) 4-8; N-terminus and C-terminus assumed) the “infectivity respect to the control” value (20 μM) was 30-60% and the “infectivity respect to the control” value (40 μM) was 30-60%.
